Reference: US5428129 (dated 1995)
*: point of attachment. OPac = O=C(CO*)c1ccccc1; Boc = CC(C)(C)OC(=O)*; Bn = c1ccc(C*)cc1

Assay: general procedure: hybrid (solid and solution phase) peptide synthesis; p-methylbenzhydrylamine-polystyrene resin (0.42 mM NH2/g resin, 1% divinylbenzene, 100-200 mesh); WSC.HCl / HOBt.H2O
Details: coupling step, acetate (via TFA salt)

Substance | step yield [%]
Boc-S(Bn)NLS(Bn)-OPac | 85.3
Boc-S(Bn)NLS(Bn)T(Bn)-OPac | 84.0
